# Measurements published in patent publication US20250297029A1 (NANJING LEGEND BIOTECH, published 2025).
# Sequences of proteins named here, by UniProt entry; tags and fusion partners are left off. Residues count along the entry.
# UniProt P51654, residues 25-559: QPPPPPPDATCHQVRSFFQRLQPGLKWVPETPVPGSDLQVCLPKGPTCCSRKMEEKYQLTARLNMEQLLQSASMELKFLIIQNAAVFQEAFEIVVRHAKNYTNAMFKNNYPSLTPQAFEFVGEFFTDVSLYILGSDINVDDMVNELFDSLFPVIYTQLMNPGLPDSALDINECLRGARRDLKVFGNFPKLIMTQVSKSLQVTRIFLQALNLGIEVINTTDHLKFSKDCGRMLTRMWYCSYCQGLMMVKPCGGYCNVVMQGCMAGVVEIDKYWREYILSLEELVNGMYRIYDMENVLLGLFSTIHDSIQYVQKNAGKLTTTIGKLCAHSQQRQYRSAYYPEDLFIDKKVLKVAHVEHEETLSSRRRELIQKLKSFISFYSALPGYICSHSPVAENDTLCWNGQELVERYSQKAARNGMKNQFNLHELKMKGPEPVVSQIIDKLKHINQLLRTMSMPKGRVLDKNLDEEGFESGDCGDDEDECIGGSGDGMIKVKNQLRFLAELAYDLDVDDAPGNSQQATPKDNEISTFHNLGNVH
# Positions count from the first letter of the chain named. Results are given in words; binding and its absence hold for the method and conditions named. Some binding calls cover weakened binding; strength is not graded here.
# B1: VL1.M2-VH2.M6 humanized scFv (scFv, not shown: a dimerising Fc or GST)
# scFv: DIVMTQTPLSLSVTPGQPASISCRSSQSLVHSNGNTYLHWYLQKPGQSPQLLIYKVSSRFSGVPDRFSGSGSGTDFTLKISRVEAEDVGVYYCSQNTHVPPTFGQGTKVEIKGGGGSGGGGSGGGGSQVQLVQSGAEVKKPGASVKVSCKASGYTFTSYEMHWVRQAPGQGLEWMGALDPKTGDTAYSQKFQGRVTLTADTSTSTVYMELSSLRSEDTAVYYCTRFYSYTYWGQGTLVTVSS
# notes: Crude scFv with Fc tag from HEK293 supernatant
# B2: VL1-VH2.M6 humanized scFv (scFv, not shown: a dimerising Fc or GST)
# scFv: B1 scFv with S58N
# notes: as for B1
# B3: VL1.M2-VH2 humanized scFv (scFv, not shown: a dimerising Fc or GST)
# scFv: B1 scFv with S158D, Q192K
# notes: as for B1
# B4: VL1.M2-VH2.M1 humanized scFv (scFv, not shown: a dimerising Fc or GST)
# scFv: B1 scFv with Q192K
# notes: as for B1
# B5: VL1.M2-VH2.M5 humanized scFv (scFv, not shown: a dimerising Fc or GST)
# scFv: B1 scFv with S158D
# notes: as for B1
# B6: VL1-VH2.M5 humanized scFv (scFv, not shown: a dimerising Fc or GST)
# scFv: B1 scFv with S58N, S158D
# notes: as for B1
# B7: VL1-VH2 humanized scFv (scFv, not shown: a dimerising Fc or GST)
# scFv: B1 scFv with S58N, S158D, Q192K
# notes: as for B1
# B8: VL1-VH2.M1 humanized scFv (scFv, not shown: a dimerising Fc or GST)
# scFv: B1 scFv with S58N, Q192K
# notes: as for B1
# B9: VL1.M2-VH2.M8 humanized scFv (scFv, not shown: a dimerising Fc or GST)
# scFv: B1 scFv with K181S
# B10: VL1.M2-VH2.M11 humanized scFv (scFv, not shown: a dimerising Fc or GST)
# scFv: B1 scFv with D184S
# B11: VL1.M3-VH2.M6 humanized scFv (scFv, not shown: a dimerising Fc or GST)
# scFv: B1 scFv with N35K
# B12: VL1.M2-VH2.M10 humanized scFv (scFv, not shown: a dimerising Fc or GST)
# scFv: B1 scFv with K181S, T182G
# B13: VL1.M7-VH2.M6 humanized scFv (scFv, not shown: a dimerising Fc or GST)
# scFv: B1 scFv with N96G
# B14: VL1.M2-VH2.M9 humanized scFv (scFv, not shown: a dimerising Fc or GST)
# scFv: B1 scFv with T182G
# B15: VL1.M6-VH2.M6 humanized scFv (scFv, not shown: a dimerising Fc or GST)
# scFv: B1 scFv with S94M
# B16: VL1.M8-VH2.M6 humanized scFv (scFv, not shown: a dimerising Fc or GST)
# scFv: B1 scFv with V99W
# Molecular target: T1, GPC3 (UniProt P51654 25-559, limits assumed)
# T1 construct: also called antigen GPC3; Glypican 3
# Assay: SPR (Biacore T200); scFv-Fc captured by anti-human Fc pAb, GPC3 in flow
row,binding,Binder
1,binds,B1
2,binds,B2
3,binds,B3
4,binds,B4
5,binds,B5
6,binds,B6
7,binds,B7
8,binds,B8

# Molecular target: T1, GPC3
# Assay: SPR as in Example 1
row,binding,Binder
1,binds,B9
2,binds,B10
3,binds,B11
4,binds,B12
5,binds,B13
6,binds,B14
7,binds,B15
8,binds,B16
